Experimental data: patent WO2021032966A1
Results are given in words; binding and its absence hold for the method and conditions named. Some entries that bind do so weakly or less than the wild type.

Chains of the proteins cited; added tags and fusions are not shown. Residues count along the entry.
UniProt P05067, residues 671-711: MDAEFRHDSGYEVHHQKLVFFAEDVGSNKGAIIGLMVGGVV

What was measured:
[1] = molecular target: Zn2+-stabilised Ab40 oligomers (UniProt P05067); experiment: ELISA with immobilised DesAbs and Ab40 oligomers in solution, compared with the ANS assay
[2] = molecular target: Zn2+-stabilised Ab40 oligomers (UniProt P05067); experiment: dot blot, DesAbs spotted on nitrocellulose, incubated with Ab40 oligomers, revealed with 6E10

binding [1]: binds
binding [2]: binds
B1: DesAb-O (VHH)
VHH: EVQLVESGGGLVQPGGSLRLSCAASGFNIKDTYIGWVRRAPGKGEEWVASIYPTNGYTRYADSVKGRFTISADTSKNTAYLQMNSLRAEDTAVYYCAAGSESAFGRAEEEAAAWGQGTLVTVSS
